Some of these results come from one statement about several compounds together. At least one structure is not confirmed: it was looked up by name or label, or the drawing left a doubt.
system: Silverleaf Whiteflies (Bemisia argentifoli); assay: Insecticidal test against silverleaf whiteflies, spray on cabbage (Test Example 4); format: in vivo; details: 500 ppm, sprayed 20 ml/cup onto cabbage with larvae hatched from about 80 to 100 eggs, 7th day after the application

Row | SMILES | number of surviving larvae
1 | CC#CCOc1cc(Nc2cccc(F)c2F)ncn1 [(73)] | ≤ 10
2 | C#CCOc1cc(Oc2ccccc2)ncn1 [(51)] | ≤ 10
3 | CC#CCOc1cc(OC2CCCCC2)ncn1 [(159)] | ≤ 10
4 | CC#CCOc1cc(O[C@H]2CC[C@H](C)CC2)ncn1 [(188)] | ≤ 10
5 | CC#CCOc1cc(C(C)c2ccccc2F)ncn1 (centres unmarked) [(120)] | ≤ 10
6 | C=CCN(CC)c1cc(OCC#CC)ncn1 [(110)] | ≤ 10
7 | CC#CCOc1cc(OC2CCCC2)ncn1 [(158)] | ≤ 10
8 | CC#CCOc1ncnc(Cc2ccccc2F)c1F [(191)] | ≤ 10
9 | CC#CCOc1cc(Oc2ccc(F)c(F)c2)ncn1 [(10)] | ≤ 10
10 | CC#CCOc1cc(N(CCC)CCC)ncn1 [(113)] | ≤ 10
11 | CC#CCOc1cc(Oc2ccccc2)ncn1 [(9)] | ≤ 10
12 | CC#CCOc1cc(N(C)c2cccc(F)c2F)ncn1 [(66)] | ≤ 10
13 | C#CCOc1cc(Oc2ccccc2Cl)ncn1 [(19)] | ≤ 10
14 | CC#CCOc1cc(N(CC)CC(F)(F)C(F)(F)F)ncn1 [(112)] | ≤ 10
15 | CC#CCOc1cc(Oc2c(Cl)cc(F)cc2Cl)ncn1 [(160)] | ≤ 10
16 | C#CCOc1cc(OCC#C)ncn1 [(52)] | ≤ 10
17 | CC#CCOc1cc(Cc2c(Cl)ccc(C)c2F)ncn1 [(121)] | ≤ 10
18 | C#CCOc1cc(Oc2c(F)cccc2F)ncn1 [(21)] | ≤ 10
19 | CC#CCOc1cc(Cc2ccc(F)cc2)ncn1 [(143)] | ≤ 10
20 | CC#CCOc1cc(Sc2ccccc2Cl)ncn1 [(142)] | ≤ 10
21 | CC#CCOc1cc(Cc2c(F)ccc(F)c2Cl)ncn1 [(130)] | ≤ 10
22 | CC#CCOc1cc(Sc2ccccc2F)ncn1 [(146)] | ≤ 10
23 | CC#CCOc1ncnc(Oc2c(F)cccc2F)c1F [(190)] | ≤ 10
24 | CC#CC(C)Oc1cc(Cc2c(F)cccc2F)ncn1 (centres unmarked) [(147)] | ≤ 10
25 | CC#CCOc1cc(O[C@H]2CC[C@@H](C)CC2)ncn1 [(187)] | ≤ 10
26 | CC#CCOc1cc(Oc2cccc(C)c2C)ncn1 [(67)] | ≤ 10
27 | CC#CCOc1cc(OCc2c(F)cccc2F)ncn1 [(68)] | ≤ 10
28 | CC#CCOc1cc(C(F)c2ccccc2)ncn1 (centres unmarked) [(124)] | ≤ 10
29 | CC#CCOc1cc(N(CC)CC)ncn1 [(144)] | ≤ 10
